Paper PMC11391609
Results are given in words; binding and its absence hold for the method and conditions named. In cells and extracts the contact can be indirect. Some binding calls cover weakened binding; strength is not graded here.

Biological target: T1, Sirtuin 1 (SIRT1) (human (endogenous in RL95-2)), Q96EB6
T1 chain: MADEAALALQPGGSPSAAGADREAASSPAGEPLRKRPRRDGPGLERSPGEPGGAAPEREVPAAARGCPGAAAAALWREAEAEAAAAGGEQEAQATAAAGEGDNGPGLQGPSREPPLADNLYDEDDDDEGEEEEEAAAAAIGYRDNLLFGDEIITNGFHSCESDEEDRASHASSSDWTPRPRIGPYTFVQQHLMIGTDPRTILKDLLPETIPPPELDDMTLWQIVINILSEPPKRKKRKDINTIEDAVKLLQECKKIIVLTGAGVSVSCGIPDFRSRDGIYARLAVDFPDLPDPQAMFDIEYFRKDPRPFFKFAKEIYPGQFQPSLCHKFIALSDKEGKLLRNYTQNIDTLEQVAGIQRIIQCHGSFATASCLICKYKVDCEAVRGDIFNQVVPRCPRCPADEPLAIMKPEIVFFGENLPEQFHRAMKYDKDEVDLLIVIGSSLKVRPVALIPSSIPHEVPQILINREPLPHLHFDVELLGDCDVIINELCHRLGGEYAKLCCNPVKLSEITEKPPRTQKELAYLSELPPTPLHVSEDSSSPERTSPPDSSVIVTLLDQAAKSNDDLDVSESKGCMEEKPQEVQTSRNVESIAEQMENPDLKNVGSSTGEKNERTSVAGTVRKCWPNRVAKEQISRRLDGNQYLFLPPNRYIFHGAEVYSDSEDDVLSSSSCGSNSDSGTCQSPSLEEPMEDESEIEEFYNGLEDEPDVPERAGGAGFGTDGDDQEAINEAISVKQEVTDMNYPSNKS
Assay: co-IP; RL95-2 lysate (IP lysis buffer with protease and phosphatase inhibitors) incubated overnight at 4 °C with Protein G magnetic beads and anti-SIRT1 or anti-FOXO3 antibody; washed four times with NETN buffer (20 mM Tris pH 8.0, 100 mM NaCl, 1 mM EDTA, 0.5% NP-40); Western blot
Conditions: remark: other sources report otherwise

- binding: binds
B1: FOXO3, O43524 1-673 (protein)
chain: MAEAPASPAPLSPLEVELDPEFEPQSRPRSCTWPLQRPELQASPAKPSGETAADSMIPEEEDDEDDEDGGGRAGSAMAIGGGGGSGTLGSGLLLEDSARVLAPGGQDPGSGPATAAGGLSGGTQALLQPQQPLPPPQPGAAGGSGQPRKCSSRRNAWGNLSYADLITRAIESSPDKRLTLSQIYEWMVRCVPYFKDKGDSNSSAGWKNSIRHNLSLHSRFMRVQNEGTGKSSWWIINPDGGKSGKAPRRRAVSMDNSNKYTKSRGRAAKKKAALQTAPESADDSPSQLSKWPGSPTSRSSDELDAWTDFRSRTNSNASTVSGRLSPIMASTELDEVQDDDAPLSPMLYSSSASLSPSVSKPCTVELPRLTDMAGTMNLNDGLTENLMDDLLDNITLPPSQPSPTGGLMQRSSSFPYTTKGSGLGSPTSSFNSTVFGPSSLNSLRQSPMQTIQENKPATFSSMSHYGNQTLQDLLTSDSLSHSDVMMTQSDPLMSQASTAVSAQNSRRNVMLRNDPMMSFAAQPNQGSLVNQNLLHHQHQTQGALGGSRALSNSVSNMGLSESSSLGSAKHQQQSPVSQSMQTLSDSLSGSSLYSTSANLPVMGHEKFPSDLDLDMFNGSLECDMESIIRSELMDADGLDFNFDSLISTQNVVGLNVGNFTGAKQASSQSWVPG
